This assay addresses T1, biotinylated mitochondrial single-stranded DNA-binding protein (BTN-mtSSB), wild type (human) (UniProt Q04837).
T1 sequence (chain, biotin (conjugated; site not stated)): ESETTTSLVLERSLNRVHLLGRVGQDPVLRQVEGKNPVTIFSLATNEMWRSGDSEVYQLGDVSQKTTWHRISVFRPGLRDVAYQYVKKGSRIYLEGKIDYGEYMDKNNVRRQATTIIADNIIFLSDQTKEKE
The assay is described as follows: BLI; BTN-mtSSB on streptavidin sensors; 120 nM Pol γα alone, replaced by, or preincubated with 120 nM Pol γβ2; both purified.

These results are taken from publication PMC8440931, “Physical and Functional Interaction of Mitochondrial Single-Stranded DNA-Binding Protein and the Catalytic Subunit of DNA Polymerase Gamma” (Frontiers in Genetics, 2021).

Results are given in words; binding and its absence hold for the method and conditions named.

For the substance “dimeric accessory subunit of mitochondrial DNA polymerase gamma (Pol γβ2) (human)”, the binding result was “no binding (tested: 120nM)”.
